# Entries after “also recorded” stand apart in the source; their conditions may differ.
# Assay: Printing (immobilization) efficiency on NHS-activated slides, detected with RCA-I
# Details: printed 200 μM to 0.4 μM on NHS-activated slides, RCA-I detection
row,Structure (SMILES),immobilization / printing efficiency (in words)
1,CC(=O)NC1C(O)C(OC2OC(CO)C(O)C(O)C2O)C(CO)OC1N(C)OCCN (stereo not drawn) [Compound 1006],printed with equal efficiency; also recorded: readily immobilized
2,"CC(=O)NC1C(Oc2ccc(N)cc2)OC(CO)C(OC2OC(CO)C(O)C(O)C2O)C1O (stereo not drawn) [Compound 1008, reference compound]",bound less well; also recorded: not readily immobilized
3,"CC(=O)NC1C(N)OC(CO)C(OC2OC(CO)C(O)C(O)C2O)C1O (stereo not drawn) [Compound 1009, reference compound]",No detectable amounts
